These are yes or no findings as the source states them, for the method shown. Binding seen in cells or lysates may run through a third protein. Some results given as binding are weak or reduced against the parent protein; the word gives no strength. Sequences can lack the tags named with a protein.
Molecular target: T1, Flag-NFYB (UniProt P25208)
T1 sequence: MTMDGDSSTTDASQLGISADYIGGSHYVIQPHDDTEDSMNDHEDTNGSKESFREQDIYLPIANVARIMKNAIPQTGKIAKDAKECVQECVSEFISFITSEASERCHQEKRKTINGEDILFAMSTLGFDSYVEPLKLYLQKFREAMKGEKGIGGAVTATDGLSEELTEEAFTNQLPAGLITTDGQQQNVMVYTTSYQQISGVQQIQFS
Experiment: co-IP; 293T cells co-transfected with Flag-NFYB and B-Myb constructs for 48 h; precleared whole cell lysates incubated with anti-Flag antibody or normal rabbit IgG overnight at 4 °C, captured on Protein A/G Magnetic Beads, immunoblotting

Amino acid sequences for entries named in this document (tags omitted).
UniProt P10244: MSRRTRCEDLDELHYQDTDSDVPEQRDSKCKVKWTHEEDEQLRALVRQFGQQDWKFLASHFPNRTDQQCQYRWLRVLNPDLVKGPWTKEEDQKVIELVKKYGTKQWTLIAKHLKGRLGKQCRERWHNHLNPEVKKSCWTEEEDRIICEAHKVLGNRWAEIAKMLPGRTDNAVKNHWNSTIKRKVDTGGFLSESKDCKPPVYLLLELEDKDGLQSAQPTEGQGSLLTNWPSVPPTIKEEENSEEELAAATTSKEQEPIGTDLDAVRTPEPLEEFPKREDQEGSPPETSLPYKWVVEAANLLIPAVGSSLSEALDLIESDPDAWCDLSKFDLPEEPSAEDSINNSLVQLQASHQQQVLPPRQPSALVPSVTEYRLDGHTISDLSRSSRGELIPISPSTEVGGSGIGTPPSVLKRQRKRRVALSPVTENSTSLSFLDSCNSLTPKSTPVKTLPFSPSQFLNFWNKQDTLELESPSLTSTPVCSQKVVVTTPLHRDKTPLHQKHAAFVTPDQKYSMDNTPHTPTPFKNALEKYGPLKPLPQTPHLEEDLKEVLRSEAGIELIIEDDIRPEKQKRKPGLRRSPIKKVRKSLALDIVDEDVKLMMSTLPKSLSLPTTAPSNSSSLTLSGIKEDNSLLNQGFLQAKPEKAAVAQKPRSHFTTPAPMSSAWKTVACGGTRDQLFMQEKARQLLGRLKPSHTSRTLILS

binding: binds
Substance: B-Myb (MYB proto-oncogene like 2) (from UniProt P10244 1-700)
